These are yes or no findings as the source states them, for the method shown. Binding seen in cells or lysates may run through a third protein.

This experiment has as its target Recombinant Trichinella spiralis cathepsin L domains (rTsCatL2) (Trichinella spiralis). Kind of experiment: co-IP; Caco-2 cells incubated with 10 μg/mL rTsCatL2 for 30 min, washed, lysed in RIPA lysate with inhibitors; precipitated with 2 μg anti-rTsCatL2 IgG and Protein A/G PLUS agarose at 4°C, washed 5 times with RIPA; western blot with rabbit antibodies to the cell proteins; only the target purified.

B1: occludin (protein, UniProt Q16625 1-522)
chain: MSSRPLESPPPYRPDEFKPNHYAPSNDIYGGEMHVRPMLSQPAYSFYPEDEILHFYKWTSPPGVIRILSMLIIVMCIAIFACVASTLAWDRGYGTSLLGGSVGYPYGGSGFGSYGSGYGYGYGYGYGYGGYTDPRAAKGFMLAMAAFCFIAALVIFVTSVIRSEMSRTRRYYLSVIIVSAILGIMVFIATIVYIMGVNPTAQSSGSLYGSQIYALCNQFYTPAATGLYVDQYLYHYCVVDPQEAIAIVLGFMIIVAFALIIFFAVKTRRKMDRYDKSNILWDKEHIYDEQPPNVEEWVKNVSAGTQDVPSPPSDYVERVDSPMAYSSNGKVNDKRFYPESSYKSTPVPEVVQELPLTSPVDDFRQPRYSSGGNFETPSKRAPAKGRAGRSKRTEQDHYETDYTTGGESCDELEEDWIREYPPITSDQQRQLYKRNFDTGLQEYKSLQSELDEINKELSRLDKELDDYREESEEYMAAADEYNRLKQVKGSADYKSKKNHCKQLKSKLSHIKKMVGDYDRQKT
B1: the binding entry is on record as “no binding (tested: 10 μg/mL rTsCatL2)”.

The values are drawn from article PMC10721182.
